Experimental data reported in PMC5399782.
Results are given in words; binding and its absence hold for the method and conditions named. In cells and extracts the contact can be indirect. A yes stands for co-enrichment or nearness to the bait. Other partners may have been found.

By UniProt entry, the sequences of proteins in these tests, tags left out. Where a name states a change or a piece, a line headed by the entry shows the natural chain unless it says otherwise.
UniProt Q388P6: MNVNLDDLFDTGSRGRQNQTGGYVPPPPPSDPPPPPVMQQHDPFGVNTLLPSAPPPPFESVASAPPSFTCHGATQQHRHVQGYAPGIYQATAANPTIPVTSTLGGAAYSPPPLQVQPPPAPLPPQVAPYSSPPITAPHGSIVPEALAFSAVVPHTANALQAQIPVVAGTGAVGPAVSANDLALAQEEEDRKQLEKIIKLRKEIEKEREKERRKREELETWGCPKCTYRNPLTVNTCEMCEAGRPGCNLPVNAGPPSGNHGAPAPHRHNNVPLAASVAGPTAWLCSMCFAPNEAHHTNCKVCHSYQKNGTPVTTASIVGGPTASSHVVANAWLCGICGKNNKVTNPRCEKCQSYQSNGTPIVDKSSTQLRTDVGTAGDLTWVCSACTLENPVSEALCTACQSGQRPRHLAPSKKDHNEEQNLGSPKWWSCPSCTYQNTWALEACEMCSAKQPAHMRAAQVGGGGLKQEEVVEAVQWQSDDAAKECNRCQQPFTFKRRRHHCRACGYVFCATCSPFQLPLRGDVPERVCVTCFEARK
UniProt Q581A4: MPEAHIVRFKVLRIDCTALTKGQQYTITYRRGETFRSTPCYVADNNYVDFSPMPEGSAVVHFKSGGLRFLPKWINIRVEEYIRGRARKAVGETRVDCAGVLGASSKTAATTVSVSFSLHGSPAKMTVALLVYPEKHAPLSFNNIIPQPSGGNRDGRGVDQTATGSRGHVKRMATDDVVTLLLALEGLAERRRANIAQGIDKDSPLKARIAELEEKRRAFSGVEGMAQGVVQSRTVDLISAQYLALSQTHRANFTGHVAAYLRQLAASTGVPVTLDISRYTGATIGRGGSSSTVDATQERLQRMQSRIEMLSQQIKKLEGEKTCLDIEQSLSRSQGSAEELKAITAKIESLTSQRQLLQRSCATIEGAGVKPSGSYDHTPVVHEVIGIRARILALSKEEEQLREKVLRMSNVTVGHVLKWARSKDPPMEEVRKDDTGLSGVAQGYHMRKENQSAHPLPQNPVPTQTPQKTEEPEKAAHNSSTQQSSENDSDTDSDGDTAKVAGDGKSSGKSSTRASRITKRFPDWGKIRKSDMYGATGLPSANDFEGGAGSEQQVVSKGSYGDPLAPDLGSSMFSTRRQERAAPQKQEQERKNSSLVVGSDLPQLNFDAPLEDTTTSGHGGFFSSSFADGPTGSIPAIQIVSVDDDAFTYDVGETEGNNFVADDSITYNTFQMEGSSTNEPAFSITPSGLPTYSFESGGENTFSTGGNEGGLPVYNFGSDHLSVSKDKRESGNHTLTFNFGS
UniProt Q57W90: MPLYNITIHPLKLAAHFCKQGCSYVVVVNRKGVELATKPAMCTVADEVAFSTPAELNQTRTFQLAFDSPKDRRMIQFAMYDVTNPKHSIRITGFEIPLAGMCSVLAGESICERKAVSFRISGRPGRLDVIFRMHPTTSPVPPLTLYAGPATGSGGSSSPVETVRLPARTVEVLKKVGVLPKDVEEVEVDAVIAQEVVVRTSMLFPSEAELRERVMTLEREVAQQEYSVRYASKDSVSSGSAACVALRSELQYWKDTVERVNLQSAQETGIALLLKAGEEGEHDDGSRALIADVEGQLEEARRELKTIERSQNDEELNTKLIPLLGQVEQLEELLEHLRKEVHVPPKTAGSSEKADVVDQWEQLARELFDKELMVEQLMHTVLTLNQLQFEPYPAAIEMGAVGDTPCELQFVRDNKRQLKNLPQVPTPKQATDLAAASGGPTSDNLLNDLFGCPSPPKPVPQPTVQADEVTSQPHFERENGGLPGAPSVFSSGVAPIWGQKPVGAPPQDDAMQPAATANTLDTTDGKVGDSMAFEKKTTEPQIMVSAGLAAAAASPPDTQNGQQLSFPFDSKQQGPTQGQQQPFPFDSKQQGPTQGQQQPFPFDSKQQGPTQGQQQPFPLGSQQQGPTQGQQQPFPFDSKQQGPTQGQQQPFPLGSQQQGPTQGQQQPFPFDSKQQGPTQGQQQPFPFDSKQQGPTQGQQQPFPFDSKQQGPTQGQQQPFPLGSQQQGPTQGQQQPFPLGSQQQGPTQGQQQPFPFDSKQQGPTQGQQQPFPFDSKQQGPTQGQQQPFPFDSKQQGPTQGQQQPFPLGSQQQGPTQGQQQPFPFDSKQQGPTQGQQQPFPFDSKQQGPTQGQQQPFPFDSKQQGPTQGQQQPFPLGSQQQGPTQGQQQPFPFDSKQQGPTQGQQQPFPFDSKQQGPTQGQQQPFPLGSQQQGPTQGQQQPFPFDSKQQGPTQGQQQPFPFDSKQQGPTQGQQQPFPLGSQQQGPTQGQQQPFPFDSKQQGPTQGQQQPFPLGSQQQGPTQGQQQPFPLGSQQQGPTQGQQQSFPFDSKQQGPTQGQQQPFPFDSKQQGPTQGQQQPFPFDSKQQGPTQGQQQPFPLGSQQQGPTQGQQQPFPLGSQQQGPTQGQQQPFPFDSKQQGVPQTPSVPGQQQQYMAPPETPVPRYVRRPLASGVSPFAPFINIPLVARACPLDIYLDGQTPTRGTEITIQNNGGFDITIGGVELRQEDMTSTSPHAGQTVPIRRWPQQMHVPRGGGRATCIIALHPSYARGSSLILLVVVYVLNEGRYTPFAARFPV
UniProt Q384B0: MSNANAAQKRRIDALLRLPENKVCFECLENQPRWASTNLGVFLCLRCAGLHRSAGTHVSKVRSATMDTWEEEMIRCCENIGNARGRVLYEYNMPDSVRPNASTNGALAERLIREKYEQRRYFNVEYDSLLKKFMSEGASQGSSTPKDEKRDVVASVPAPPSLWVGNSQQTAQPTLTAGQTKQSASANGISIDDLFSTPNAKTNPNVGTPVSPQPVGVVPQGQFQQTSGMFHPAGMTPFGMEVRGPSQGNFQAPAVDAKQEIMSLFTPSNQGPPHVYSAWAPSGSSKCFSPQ
UniProt Q387I4: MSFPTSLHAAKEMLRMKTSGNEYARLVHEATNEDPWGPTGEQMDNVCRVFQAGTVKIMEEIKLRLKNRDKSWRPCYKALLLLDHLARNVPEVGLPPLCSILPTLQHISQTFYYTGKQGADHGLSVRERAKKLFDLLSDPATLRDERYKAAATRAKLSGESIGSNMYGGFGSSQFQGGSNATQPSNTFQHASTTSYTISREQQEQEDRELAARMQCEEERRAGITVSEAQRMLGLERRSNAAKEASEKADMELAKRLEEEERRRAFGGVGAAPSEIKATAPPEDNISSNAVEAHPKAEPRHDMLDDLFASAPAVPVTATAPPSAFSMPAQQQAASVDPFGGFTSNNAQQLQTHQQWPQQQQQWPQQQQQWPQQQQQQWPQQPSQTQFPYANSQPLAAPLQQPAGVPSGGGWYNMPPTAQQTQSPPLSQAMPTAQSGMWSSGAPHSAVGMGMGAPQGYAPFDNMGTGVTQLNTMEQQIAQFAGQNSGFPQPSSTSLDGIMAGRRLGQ

Biological target: Trypanosoma brucei clathrin heavy chain with a C-terminal GFP (CHC::GFP) (Trypanosoma brucei brucei (endogenous in Lister 427)) (UniProt Q38B01)
Test: affinity purification with mass spectrometry; CHC::GFP captured from 300 mg of cryomilled powder of bloodstream- or procyclic-form cells with polyclonal llama anti-GFP antibodies on magnetic beads; 100 mM sodium phosphate pH 7.4, 250 mM Na-citrate, 0.5% Tween 20; LC-ESI MS; uncoupled beads as the control

| Substance | binding |
| --- | --- |
| Tb927.10.13520 (from UniProt Q388P6) | binds |
| TbCAP80, Tb927.8.3840 (from UniProt Q581A4) | binds |
| TbCAP141, Tb927.8.2820 (from UniProt Q57W90) | binds |
| TbSMAP, Tb927.11.9180 (from UniProt Q384B0) | binds |
| Trypanosoma brucei EpsinR (TbEpsinR) (from UniProt Q387I4) | binds |
